One data set concerns CBD (Human). Briefly: competition with a labelled probe. The following applies: DNA (20 uM) sequesters CBD from His-NMVITAIL in pull-down; recombinant protein; residues 1060-1253; protein details: His-tag (pET28).
For data set [1], the system named is CBD deltaSiteA K1093A,K1095A,K1097N,K1098N (Human). Description: fluorescence anisotropy. As to conditions: FAM-DNA 50 nM; assay buffer; recombinant protein; protein details: His-tag (pET28); label: 3' FAM on strand A.
Data set [2] relates to CCBD deltaSiteC T1205A,R1206A,K1207A,R1208A (Human). Briefly: fluorescence anisotropy. As to conditions: FAM-DNA 50 nM; assay buffer; recombinant protein; protein details: His-tag (pET28); label: 3' FAM on strand A. In general terms: Polarisation of emitted light reports the rotation of a fluorescent probe.
The test system of a further data set is NCBD (Human). Description: fluorescence anisotropy. As to conditions: FAM-DNA 50 nM; assay buffer; recombinant protein; residues 1060-1120; protein details: His-tag (pET28); label: 3' FAM on strand A.
A further data set has as its system NMVITAIL (Human). Briefly: fluorescence anisotropy. As to conditions: FAM-DNA 50 nM; assay buffer; recombinant protein; residues 814-1060; protein details: His-tag (pET151), TEV-cleaved; label: 3' FAM on strand A.

Chains of the proteins cited; added tags and fusions are not shown. Chains listed by the source or under a name are the forms on record and can include a tag or linker.
CBD deltaSiteA K1093A,K1095A,K1097N,K1098N (Human), one chain, as listed by the source K1093A K1095A K1097N K1098N: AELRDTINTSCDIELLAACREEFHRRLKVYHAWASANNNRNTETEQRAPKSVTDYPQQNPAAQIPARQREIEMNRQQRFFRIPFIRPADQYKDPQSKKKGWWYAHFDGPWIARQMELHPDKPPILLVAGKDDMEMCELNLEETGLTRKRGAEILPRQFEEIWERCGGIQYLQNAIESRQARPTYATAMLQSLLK
CCBD deltaSiteC T1205A,R1206A,K1207A,R1208A (Human), one chain, as listed by the source T1205A R1206A K1207A R1208A: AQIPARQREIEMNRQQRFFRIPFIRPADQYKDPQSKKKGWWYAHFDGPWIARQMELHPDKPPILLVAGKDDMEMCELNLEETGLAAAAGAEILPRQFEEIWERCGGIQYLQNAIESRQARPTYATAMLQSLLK
CBD (Human), one chain, as listed by the source: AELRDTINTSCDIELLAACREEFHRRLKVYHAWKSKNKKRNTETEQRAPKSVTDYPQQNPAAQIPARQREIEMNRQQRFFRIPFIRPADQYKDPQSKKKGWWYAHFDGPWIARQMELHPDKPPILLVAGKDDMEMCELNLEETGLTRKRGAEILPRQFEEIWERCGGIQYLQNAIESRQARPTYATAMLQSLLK
NCBD (Human), one chain, as listed by the source: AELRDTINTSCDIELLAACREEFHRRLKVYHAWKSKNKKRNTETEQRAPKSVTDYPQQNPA

For some assays here: Weaker means in comparison with the reference protein, sequence or condition of that experiment. For some assays here: For at least one entry, the source does not settle the construct or the ends of the probe.

As to “TTAGTTGTTCGTAGTGCTCGTCTGGCTCTGGATTACCCGC (double strand) [40 bp DNA (unlabelled competitor)]”, the binding result in the data set on CBD (Human) is given as “binds”.
As to “TTAGTTGTTCGTAGTGCTCGTCTGGCTCTGGATTACCCGC (double strand) [ds40]”, the binding result (in data set [1]; in data set [2]; with NCBD (Human); in the data set on NMVITAIL (Human)) was “binds more weakly” each time.

Source of the values: article PMC5707354.
